From PubChem BioAssay AID248 (DTP/NCI, 2004)
The list shows only some results of the screen, not a fair sample: it is rich in T/C values a quarter to a half above the control, in often repeated tests (any T/C) and in doses without a T/C. Further doses and runs are listed elsewhere. T/C: endpoint of the treated group in % of that of the vehicle group. Some entries give survivors of the animals treated and no T/C: the source files T/C as zero there, which appears to mark a toxic dose or a test without result, not a measured value. Some doses without a T/C left all or most animals alive at the check, yet need not have been tolerated: survival well below the control is almost never listed, so the zero probably covers shortened survival too. Counts of survivors are from the toxicity check (mostly the fifth day) where no day follows; animals may have died later. Schedules are NCI's codes, read here as Q, the interval in days (D) or hours (H), X, the number of doses. Some schedule codes hold Z or #, which are not explained here. Where survival is the endpoint, the PubChem record calls one and a half times the control and up active, and a quarter to a half above the control has no call in these data; cut-offs in other NCI protocols can differ.

Tested on: L1210 leukemia ip in BDF1 mice, survival T/C
Experiment: NCI In Vivo Anticancer Drug Screen. Data for tumor model L1210 Leukemia (intraperitoneal) in B6D2F1 (BDF1) mice
Conditions: T/C endpoint: mean survival time, higher T/C = longer survival
[1] = dose: 200.0 mg/kg/injection, schedule: Q01DX001 (ip), vehicle: carboxymethylcellulose (CMC)
[2] = dose: 200.0 mg/kg/injection, schedule: Q01DX009 (ip), vehicle: Klucel (hydroxypropylcellulose) (HPC)
[3] = dose: 400.0 mg/kg/injection, schedule: Q01DX009 (ip), vehicle: Klucel (hydroxypropylcellulose) (HPC)
[4] = dose: 400.0 mg/kg/injection, schedule: Q01DX009 (ip), vehicle: saline with Tween-80
[5] = dose: 400.0 mg/kg/injection, schedule: Q01DX001 (ip), vehicle: saline
[6] = dose: 200.0 mg/kg/injection, schedule: Q04DX003 (ip), vehicle: saline with Tween-80
[7] = dose: 200.0 mg/kg/injection, schedule: Q04DX003 (ip), vehicle: saline
[8] = dose: 400.0 mg/kg/injection, schedule: Q04DX003 (ip), vehicle: saline

CCOC(=O)c1cn[nH]c1/N=N/N(CCF)CCF
survivor count (dose: 75.0 mg/kg/injection, schedule: Q01DX001 (ip), vehicle: other): 0 of 6
survivor count (dose: 150.0 mg/kg/injection, schedule: Q01DX001 (ip), vehicle: other): 0 of 6
survivor count (dose: 300.0 mg/kg/injection, schedule: Q01DX001 (ip), vehicle: other): 0 of 6

Cc1cc2oc(=O)c3c(c2c(O)c1CN1CCOCC1)CCCC3
survivor count [1]: 4 of 4

[O-][n+]1ccc(CC(O)(C(F)(F)F)C(F)(F)F)cc1
survivor count [2]: 1 of 6
survivor count [3]: 0 of 6

Cc1ccc(S(=O)(=O)Nc2ccccc2-c2nc3ccc([N+](=O)[O-])cc3c(=O)o2)cc1
survivor count [4]: 2 of 6

COc1ccc(C(=O)OCc2ccccc2CN(C)C)cc1
survivor count (dose: 400.0 mg/kg/injection, schedule: Q04DX002 (ip), vehicle: saline): 0 of 3

CCN(CC)/N=N/c1nc[nH]c1C(N)=O
T/C (dose: 100.0 mg/kg/injection, schedule: Q01DX009 (ip), vehicle: Klucel (hydroxypropylcellulose) (HPC)): 127 % of control
survivor count [2]: 5 of 6
survivor count (dose: 200.0 mg/kg/injection, schedule: Q01DX009 (ip), vehicle: water): 9 of 10
survivor count [3]: 0 of 6
survivor count (dose: 400.0 mg/kg/injection, schedule: Q01DX009 (ip), vehicle: water): 0 of 10

Cn1c(SCc2ccccc2)nccc1=O
survivor count [3]: 1 of 6

c1ccc2c(c1)OC1OC2Oc2ccccc21
T/C [5]: 125 % of control

Cc1ccc(CNC(=O)Nc2cccc(C(F)(F)F)c2)cc1C
survivor count (dose: 400.0 mg/kg/injection, schedule: Q01DX009 (ip), vehicle: gum acacia): 5 of 6

N#CCC[N+]1([O-])CCCCC1C(=O)O (stereo not given)
survivor count [5]: 0 of 4

CC(=O)C(C(C)=O)C(c1ccc2c(c1)OCO2)C(C(C)=O)C(C)=O
survivor count (dose: 100.0 mg/kg/injection, schedule: Q01DX009 (ip), vehicle: saline with Tween-80): 6 of 6
survivor count (dose: 200.0 mg/kg/injection, schedule: Q01DX009 (ip), vehicle: saline with Tween-80): 6 of 6
survivor count [6]: 5 of 6
survivor count (dose: 400.0 mg/kg/injection, schedule: Q04DX003 (ip), vehicle: saline with Tween-80): 6 of 6

CCOP(=O)(OCC)N1C(=O)CCC1=O
survivor count (dose: 55.0 mg/kg/injection, schedule: Q01DX009 (ip), vehicle: saline): 0 of 6
survivor count (dose: 80.0 mg/kg/injection, schedule: Q04DX003 (ip), vehicle: saline): 1 of 6

COC(=O)c1n[nH]c(C)c1N=NN(C)C
survivor count (dose: 300.0 mg/kg/injection, schedule: Q01DX001 (ip), vehicle: saline): 0 of 6

CCCCC(CC)C(=O)[O][Sn]([CH2]CCC)([CH2]CCC)[O]C(=O)C(CC)CCCC (stereo not given)
survivor count (dose: 50.0 mg/kg/injection, schedule: Q04DX003 (ip), vehicle: saline with Tween-80): 1 of 6
survivor count (dose: 100.0 mg/kg/injection, schedule: Q04DX003 (ip), vehicle: saline with Tween-80): 0 of 6
survivor count [6]: 0 of 6

CCOP(=S)(OCC)OP(=S)(OCC)OCC
survivor count (dose: 4.0 mg/kg/injection, schedule: Q01DX009 (ip), vehicle: other): 0 of 6

Cc1c(Cl)cccc1NC(=O)/C=C/C(=O)O
survivor count [4]: 0 of 6

Cc1nc2nc[nH]c(=O)c2nc1C
survivor count (dose: 500.0 mg/kg/injection, schedule: Q01DX Z (ip), vehicle: methylcellulose (MC)): 6 of 6

CNN
survivor count (dose: 50.0 mg/kg/injection, schedule: Q01DX009 (ip), vehicle: saline): 4 of 6
survivor count (dose: 100.0 mg/kg/injection, schedule: Q01DX009 (ip), vehicle: saline): 0 of 6
survivor count [7]: 0 of 6
survivor count [8]: 0 of 6

CN(C)C(=N)CSS(=O)(=O)O
survivor count (dose: 400.0 mg/kg/injection, schedule: Q04DX002 (ip), vehicle: Klucel (hydroxypropylcellulose) (HPC)): 0 of 3

C#CC(=O)c1ccccc1
survivor count (dose: 9.4 mg/kg/injection, schedule: Q01DX009 (ip), vehicle: saline with Tween-80): 3 of 6
survivor count (dose: 18.8 mg/kg/injection, schedule: Q01DX009 (ip), vehicle: saline with Tween-80): 0 of 6
survivor count (dose: 75.0 mg/kg/injection, schedule: Q01DX001 (ip), vehicle: saline): 0 of 6
survivor count (dose: 100.0 mg/kg/injection, schedule: Q01DX001 (ip), vehicle: saline): 0 of 6
survivor count (dose: 200.0 mg/kg/injection, schedule: Q01DX001 (ip), vehicle: saline): 0 of 6
survivor count [5]: 0 of 6

Oc1ccc(Cl)cc1C=Nc1cnc2ccccc2c1
survivor count [1]: 4 of 4

NC(=S)N/N=C/c1ccco1
survivor count [7]: 3 of 6
survivor count [5]: 0 of 6
survivor count [8]: 0 of 6
